Reference: PubChem BioAssay AID2685 (National Center for Advancing Translational Sciences (NCATS), 2010)
The list shows a part of the results. Shown are side measurements of this screen, not its main read-out; they come without a call. Compounds called inactive in the main read-out are mostly missing here. The note in brackets gives the kind of curve behind each potency; many fits are weak.

Experiment: qHTS Assay for Lipid Storage Modulators in Drosophila S3 Cells;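 on cell number change: cells counted by Cell Tracker Red CMTPX staining in the red channel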
Settings: BODIPY lipid droplet fluorescence, 18-24 h; for cell number change: measured here: cell count max response, cells fed with added oleic acid
How it was run: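 Drosophila S3 cells loaded with oleic acid (400 uM, as added) and compounds at several concentrations; lipid droplets imaged by 488-nm laser-scanning cytometry, 500–530 nm intensity and object ratio to cell channel. Percent activity normalized to 20 uM Triacsin C.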

[1] = measured here: cell number channel AC50, cells fed with added oleic acid
[2] = measured here: lipid fluorescence (Fed channel) AC50, cells fed with added oleic acid

Structure (SMILES)	cell number change	AC50 [1]	AC50 [2]
Cc1ccc(-n2ccnc(SCC(=O)NC3CCCC3)c2=O)cc1Cl	-11.3%	–	–
COC(=O)c1ccc2c(=O)n(CCN3CCOCC3)c(=S)[nH]c2c1	56.9%	11.6 µM [rising, partial curve]	11.6 µM [rising, partial curve]
CCOc1ccc(/C=N/NC(=O)C(=O)N2CCCCCC2)c2ccccc12	-55.8%	29.1 µM [falling, partial curve, poor fit]	29.1 µM [falling, single point]
CCOC(=O)c1cc(-c2ccccc2)nn1CCC#N	–	0.0731 µM [rising, full curve, poor fit]	–
O=C(NCc1cccnc1)Nc1ccc2c(c1)OCO2	16.6%	–	29.1 µM [rising, single point]
CC(C)CN1C(=O)c2ccccc2C1(O)Cc1ccccc1 (stereo not given)	-16.6%	–	32.6 µM [falling, partial curve, poor fit]
O=C(N/N=C/c1sc2ccccc2c1O)c1ccccc1	-24%	–	13 µM [falling, partial curve]
CC(C)(C)NC(=O)COC(=O)c1cc(F)c(F)cc1Cl	–	–	0.82 µM [falling, single point]
CCOC(=O)c1c(C)[nH]c(C)c1C(=O)COC(=O)c1ccc(S(=O)(=O)N(CC)CC)cc1	-5.13%	–	0.0058 µM [falling, full curve, poor fit]
Cc1ccc(C(=O)Nc2cccc(C(=O)N3CCOCC3)c2)cc1	19.6%	0.00461 µM [rising, full curve, poor fit]	–
C/C(=N\NC(=O)c1ccc2c(c1)OCO2)c1ccc(O)cc1	-7.66%	–	6.51 µM [falling, single point]
N#C/C(=C\c1cn(CCOc2ccccc2F)c2ccccc12)C(=O)NCc1cccs1	4.49%	–	1.03 µM [rising, full curve, poor fit]
CSc1nnc(NC(=O)c2ccc(C)c(S(=O)(=O)N3CCOCC3)c2)s1	-8.89%	–	3.66 µM [falling, single point]
CCN1CC=C2C(C#N)=C(N)C(C#N)(C#N)C(CCc3ccccc3)C2C1 (stereo not given)	-6.29%	–	0.103 µM [rising, full curve, poor fit]
COc1ccccc1CN1CCC(CNS(=O)(=O)c2cc(-c3cc(C)no3)ccc2C)CC1	19.9%	–	14.6 µM [rising, partial curve]
N#Cc1cc(-c2cccc(Cl)c2)c[nH]c1=O	-51.6%	29.1 µM [falling, single point]	25.9 µM [falling, single point]
C=CCSc1nc(Cc2ccc(Cl)cc2)nc2ccccc12	-14%	–	–
CC(C)[C@H](NC(=O)N1CCn2c1nc1ccccc12)C(=O)NC1CC1	–	–	29.1 µM [rising, single point]
CC1(C)Cc2nc3oc4c(SCC(N)=O)ncnc4c3cc2CO1	-10.1%	–	–

Three records picked at random from the list so far, as already listed:
Structure (SMILES)	cell number change	AC50 [1]	AC50 [2]
CCOC(=O)c1cc(-c2ccccc2)nn1CCC#N	–	0.0731 µM [rising, full curve, poor fit]	–
CC(C)[C@H](NC(=O)N1CCn2c1nc1ccccc12)C(=O)NC1CC1	–	–	29.1 µM [rising, single point]
C/C(=N\NC(=O)c1ccc2c(c1)OCO2)c1ccc(O)cc1	-7.66%	–	6.51 µM [falling, single point]

Remaining list, next part

Structure (SMILES)	cell number change	AC50 [1]	AC50 [2]
CC(C)(C)NC(=O)CN(Cc1ccc2c(c1)OCO2)C(=O)CNC(=O)c1cccs1	-55.7%	18.4 µM [falling, single point]	23.1 µM [falling, partial curve, poor fit]
O=C(c1cccs1)N(Cc1ccco1)Cc1cc2ccccc2[nH]c1=O	-26.3%	0.82 µM [falling, full curve]	0.0517 µM [falling, full curve, poor fit]
COc1ccc(OC)c(S(=O)(=O)NC(C)c2ccc(-n3ccnc3)cc2)c1 (stereo not given)	-47.2%	29.1 µM [falling, single point]	25.9 µM [falling, partial curve]
Cc1cc(=O)[nH]c(N/N=C/c2ccc(C)o2)n1	33%	23.1 µM [rising, single point]	23.1 µM [rising, single point]
Cc1sc2ncn(-n3c(C)ccc3C)c(=O)c2c1C	0.13%	–	3.26 µM [falling, single point]
COc1ccc(C(=O)c2c3ccccc3[n+]([O-])n2Cc2ccc(C(N)=O)cc2)cc1	-14%	–	6.51 µM [falling, single point]
CC(=O)N1c2ccc(S(=O)(=O)N3CCCC3)cc2CC1C(=O)NC(C)C (stereo not given)	16.1%	–	29.1 µM [rising, single point]
O=C(NCc1ccccc1)C1(CC2CC(c3ccccc3)=NO2)CCNCC1 (stereo not given)	-11.6%	–	0.116 µM [rising, single point]
Cc1ccc(C2CC(c3cccs3)=NN2C(=O)c2ccc(Br)o2)cc1 (stereo not given)	-12.4%	–	29.1 µM [falling, single point]
O=C(Nc1nnc(-c2ccc(Br)cc2)o1)c1cccc(N2C(=O)CCC2=O)c1	–	–	0.00651 µM [rising, full curve, poor fit]
Cc1ccc(C2C(C#N)=C(N)SC(N)=C2C#N)o1	-3.7%	–	–
COc1cccc(-c2nc(CS(=O)(=O)CC(=O)NCCc3ccccc3)c(C)o2)c1	30.3%	0.231 µM [rising, full curve, poor fit]	–
CCN(CC)C(=O)C(Sc1ccccc1)c1ccccc1 (stereo not given)	-16.2%	0.731 µM [falling, full curve]	3.26 µM [falling, full curve]
CCCC(=O)Nc1ccc(C(=O)Nc2cccc(OC)c2)cc1	5.19%	–	0.731 µM [falling, single point]
COc1ccc(-c2cc(C)no2)cc1S(=O)(=O)Nc1ccc(NC(C)=O)cc1	-39.8%	0.146 µM [falling, full curve, poor fit]	0.58 µM [falling, single point]
NC(=O)Cc1ccc2sc(-c3ccccc3)nc2c1	0.706%	–	29.1 µM [rising, partial curve]
C/C(O)=C\c1nc(=O)c2c(C)cc(C)nc2n1-c1ccccc1	8.52%	2.06 µM [rising, single point]	–
CC(=O)NCCNC(=O)C1CCCCN1S(=O)(=O)c1ccccc1 (stereo not given)	-111%	29.1 µM [falling, single point]	–
